In the data set the test system is Trastuzumab (Herceptin®). Nature of the data set: Conjugation efficiency of halido semi-final products (SFMs) to trastuzumab, SEC at 430 nm. To be noted: 47° C.
Setting [1] is: 10 mM NaI in conjugation mixture, 5.0 eq. SFM, pH 8.1, 24 h conjugation time, FIG. 2.
The mark [2] stands for this setting: no NaI in conjugation mixture, 5.0 eq. SFM, pH 8.1, 24 h conjugation time, FIG. 1.

Among the data in patent US20200345862A1, “TRANSITION METAL-BASED FUNCTIONAL MOIETIES FOR PREPARING CELL TARGETING CONJUGATES” (priority 2017, published 2020) are conjugation efficiency values, retold here.

“[(Fe)DFO-pip-PtBr(ethane-1,2-diamine)]^+ TFA^− [5d]”: the conjugation efficiency by setting is: under setting [1], 79%; (corresponding halide salt: 50 mM NaBr, pH 8.1, 24 h, FIG. 3) 74%; under setting [2], 42%.

As for “[Pt((Fe)DFO-suc-pip)(ethane-1,2-diamine)I]^+ TFA^− [6k]”, the conjugation efficiency is reported as 80% under setting [1]; 90% (corresponding halide salt: 10 mM NaI, pH 8.1, 24 h, FIG. 3); 58% under setting [2].

Take “[PtCl((Fe)DFO-pip)(ethane-1,2-diamine)]^+ TFA^− [4a]”: the conjugation efficiency runs as follows: under setting [1], 79%; (corresponding halide salt: 200 mM NaCl, pH 8.1, 24 h, FIG. 3) 34%; under setting [2], 39%.
